Measurements from PubChem BioAssay AID1487 (National Center for Advancing Translational Sciences (NCATS), 2009).
This is one part of the list. Shown are side measurements of this screen, not its main read-out; they come without a call. Compounds called inactive in the main read-out are mostly missing here. Words in brackets tell the shape of the fitted curve; partial curves, single points and poor fits give uncertain potencies.

Experiment: qHTS Assay for Modulators of Lamin A Splicing
Settings: HeLa LMNA splicing GFP/RFP minigene ratio, 48 h
Outline: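 Read-out is the ratio of GFP to DsRed2 object intensity, acquired by 488 nm laser-scanning cytometry on HeLa lamin A-EGFP minigene reporter cells. Compound incubation 48 hrs at 37 °C in Opti-MEM with 2% FBS; DMSO 0.5% final.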

[1] = measured here: RFP viability control channel
[2] = measured here: GFP splicing reporter channel

Structure (SMILES) | AC50 [1] | AC50 [2]
CC1(C)OC(=O)C(=C2CCCN2)C(=O)O1 | 12.6 µM [falling, partial curve, poor fit] | –
Cc1cc(S(=O)(=O)Nc2ccc3c(c2)n(C)c(=O)n3C)ccc1F | – | 0.891 µM [falling, partial curve]
Cc1ccc(OCc2ccc(-c3nc(C#N)c(N4CCC(C)CC4)o3)o2)cc1 | – | 0.0126 µM [rising, full curve, poor fit]
COc1ccc(-c2nc(SCc3ccccc3)n(S(C)(=O)=O)n2)cc1 | 17.8 µM [rising, single point] | 15.8 µM [rising, single point]
CCCCOc1ccc(C(=O)Nc2cc(C)c(OCC(=O)N3CCOCC3)c(C)c2)cc1 | 35.5 µM [rising, single point] | 35.5 µM [rising, single point]
c1ccc(N2CCN(Cc3ccnc4ccccc34)CC2)cc1 | 15.8 µM [rising, single point] | –
Cc1nc2ccccc2n1CCCOc1ccccc1 | 12.6 µM [rising, partial curve] | 10 µM [rising, partial curve]
Cc1ccc(CSc2nc3sc(C)c(C)c3c(=O)n2Cc2ccco2)cc1 | 22.4 µM [falling, single point] | 14.1 µM [falling, single point]
COc1ccc(-n2c(SCCC#N)nnc2-c2cc(Cl)ccc2OC)cc1Cl | – | 35.5 µM [rising, single point]
COc1cccc(OC)c1C(=O)NNC(=O)c1ccc(F)cc1 | – | 0.02 µM [rising, full curve, poor fit]
CCc1ccccc1NC(=O)C1CCN(C2=NS(=O)(=O)C(c3ccc(C)c(C)c3)=C2C)CC1 | 0.0501 µM [falling, full curve, poor fit] | 0.112 µM [falling, partial curve]
O=C(c1ccco1)N1CCN(C(=O)N2c3ccccc3Sc3ccccc32)CC1 | 0.0891 µM [rising, full curve, poor fit] | –
Oc1oc(-c2ccccc2)nc1/C=N/c1nccs1 | 0.398 µM [rising, full curve, poor fit] | –
Cc1noc(/C=C/Nc2ccc(F)cc2F)c1[N+](=O)[O-] | 1.41 µM [rising, partial curve, poor fit] | 0.708 µM [rising, partial curve, poor fit]
Cc1ccc(-n2c(O)c(/C=N/Nc3ccc(S(=O)(=O)N4CCOCC4)cc3[N+](=O)[O-])c3ccccc3c2=O)c(C)c1 | 17.8 µM [rising, partial curve] | –
O=C(Cn1cc([N+](=O)[O-])cn1)NCc1ccco1 | 0.00316 µM [falling, full curve, poor fit] | –
CCCc1ccc(OCC(O)CN2CCN(c3ccccc3)CC2)cc1 (stereo unspecified) | – | 17.8 µM [rising, single point]
C[N+]1(C2CCC3CCCC2C3O)CCCCC1 (stereo unspecified) | – | 0.708 µM [rising, full curve]

Structure (SMILES) | AC50 [1] | AC50 [2]
O=C(O)CCCC(=O)Nc1nc(-c2ccc(F)cc2)cs1 | 31.6 µM [rising, single point] | –
O=C(NCc1ccc2c(c1)OCO2)c1ccc(Cl)s1 | 3.98 µM [rising, partial curve, poor fit] | –
CCCCn1c(-c2ccc(C)cc2)c(C)n2c3c(=O)n(C)c(=O)n(C)c3nc12 | 0.794 µM [rising, full curve, poor fit] | –
O=S(=O)(NC1CCCC1)c1ccc(S(=O)(=O)N2CCc3ccccc32)cc1 | 20 µM [rising, single point] | 20 µM [rising, single point]
O=C1/C(=C/c2cccs2)N=C(c2cccs2)N1Nc1ccccc1 | 14.1 µM [rising, single point] | –
CCOC(=O)c1cc(-c2ccc(OC(F)F)cc2)nc2nc(SC)[nH]c(=O)c12 | 0.501 µM [rising, full curve, poor fit] | –
CCCC(=O)O[C@@H]1C[C@@H](C)N(C(=O)c2ccccc2)c2ccc(C)cc21 | – | 12.6 µM [rising, single point]
Nc1c(C(=O)NCCC2=CCCCC2)sc2ccc(S(=O)(=O)N3CCCCC3)cc12 | 35.5 µM [rising, single point] | 35.5 µM [rising, single point]
CCOc1ccc(N(CC)C(=O)CSc2n[nH]c(-c3ccccc3)n2)cc1 | – | 6.31 µM [rising, partial curve]
Cc1ccc(NC(NC(=O)c2ccccc2[N+](=O)[O-])C(Cl)(Cl)Cl)cc1 (stereo unspecified) | 20 µM [rising, partial curve, poor fit] | –
Cc1cc(C(=O)N/N=C/C=C/c2ccccc2[N+](=O)[O-])c(C)o1 | – | 5.01 µM [rising, single point]
COc1cccc(CN(C)C(=O)c2cc(COc3c(F)cccc3F)on2)c1 | 1.12 µM [falling, partial curve, poor fit] | –
COc1ccc(-c2cc(=O)n(-c3ccc([N+](=O)[O-])cc3)[nH]2)cc1 | 22.4 µM [rising, single point] | 35.5 µM [falling, single point]
O=C(NC1CCCC1)c1ccc2c(c1)N(Cc1ccccc1F)C(=O)c1ccccc1S2 | 0.447 µM [falling, full curve] | 1.41 µM [falling, full curve, poor fit]
Clc1cccc(-c2nnc(SCc3nc4ccccc4[nH]3)n2Cc2ccco2)c1 | 7.94 µM [rising, partial curve] | –
Cc1cc(C)cc(N(CC(=O)Nc2cccc(C)n2)S(=O)(=O)c2c(C)noc2C)c1 | 35.5 µM [rising, single point] | –
COc1ccc(N(CC(=O)Nc2cccc(C(F)(F)F)c2)S(C)(=O)=O)cc1 | 12.6 µM [rising, single point] | –
Cc1cccc(NC(=S)N(CCN2CCOCC2)Cc2cc3cc4c(cc3[nH]c2=O)OCO4)c1 | 5.01 µM [falling, full curve] | –

An excerpt of these results, as a markdown table.

| Structure (SMILES) | AC50 [1] | AC50 [2] |
| --- | --- | --- |
| Cc1nc2ccccc2n1CCCOc1ccccc1 | 12.6 µM [rising, partial curve] | 10 µM [rising, partial curve] |
| Cc1ccc(CSc2nc3sc(C)c(C)c3c(=O)n2Cc2ccco2)cc1 | 22.4 µM [falling, single point] | 14.1 µM [falling, single point] |
| COc1ccc(-n2c(SCCC#N)nnc2-c2cc(Cl)ccc2OC)cc1Cl | – | 35.5 µM [rising, single point] |
| COc1cccc(OC)c1C(=O)NNC(=O)c1ccc(F)cc1 | – | 0.02 µM [rising, full curve, poor fit] |
| CCc1ccccc1NC(=O)C1CCN(C2=NS(=O)(=O)C(c3ccc(C)c(C)c3)=C2C)CC1 | 0.0501 µM [falling, full curve, poor fit] | 0.112 µM [falling, partial curve] |
| O=C(c1ccco1)N1CCN(C(=O)N2c3ccccc3Sc3ccccc32)CC1 | 0.0891 µM [rising, full curve, poor fit] | – |
| Oc1oc(-c2ccccc2)nc1/C=N/c1nccs1 | 0.398 µM [rising, full curve, poor fit] | – |
| Cc1noc(/C=C/Nc2ccc(F)cc2F)c1[N+](=O)[O-] | 1.41 µM [rising, partial curve, poor fit] | 0.708 µM [rising, partial curve, poor fit] |
| Cc1ccc(-n2c(O)c(/C=N/Nc3ccc(S(=O)(=O)N4CCOCC4)cc3[N+](=O)[O-])c3ccccc3c2=O)c(C)c1 | 17.8 µM [rising, partial curve] | – |
